Where a name gives a salt, the structure may show the parent alone. Read-outs that look alike come from different tables or passages of the source. Hit rate of the full screen: of about 3,300 compounds, about 60 (2%) showed an effect of 50% or more. This is one part of the list.

The subject of the assay is HCoV-OC43. Also on record: species or system RD; HTS, protection from HCoV-OC43 induced cell death, luminescent cell viability (CellCounting-Lite 2.0), inhibition rate.

In the case of `CN1Cc2c(ccc3c2OCO3)[C@@H]2[C@H]1c1cc3c(cc1C[C@@H]2O)OCO3` [Chelidonine], the “OC43 Inhibition rate” value (24 h, 10 µM; inhibitor) is 6%. Same read-out and setting: the result for `CN1[C@@H](CC(=O)c2ccccc2)CCC[C@H]1CC(=O)c1ccccc1` [Lobelanine] reads 12.9%. In the case of `COc1cc2cc(c1Cl)N(C)C(=O)C[C@H](OC(=O)C(C)C)[C@]1(C)O[C@@H]1[C@H](C)[C@@H]1C[C@@](O)(NC(=O)O1)[C@H](OC)/C=C/C=C(\C)C2` [Ansamitocin P-3], the “OC43 Inhibition rate” value (24 h, 10 µM; inhibitor) is 17.2%. Same read-out and setting: then `C/C=C/C#CC#C/C=C/c1ccco1` [Atractylodin], with 0.5%; and `Oc1c(Br)cccc1Br` [2,6-Dibromophenol], with 1.1%.

Consider `C[C@@H]1CC[C@@]2(OC1)O[C@H]1[C@@H](O)[C@H]3[C@@H]4CC[C@H]5C[C@@H](O[C@@H]6O[C@H](CO)[C@H](O[C@@H]7O[C@H](CO)[C@@H](O)[C@H](O[C@@H]8OC[C@@H](O)[C@H](O)[C@H]8O)[C@H]7O[C@@H]7O[C@H](CO)[C@H](O)[C@H](O[C@@H]8O[C@H](CO)[C@@H](O)[C@H](O)[C@H]8O)[C@H]7O)[C@H](O)[C@H]6O)[C@H](O)C[C@]5(C)[C@H]4CC[C@]3(C)[C@H]1[C@@H]2C` [Digitonin], for which, where the note is “24 h post infection, 1 h compound pre-incubation; 10 µM; inhibitor”, the “OC43 Inhibition rate” value is on record as 5.5%. As to `COc1ccc(/C=C/c2cc(OC)cc(OC)c2)cc1` [trans-Trimethoxyresveratrol], where the note is “24 h, 10 µM; inhibitor”, the “OC43 Inhibition rate” value is given as 9.7%. With `CC(C)[C@@H]1NC(=O)[C@H](C)OC(=O)[C@@H](C(C)C)NC(=O)[C@@H](C(C)C)OC(=O)[C@H](C(C)C)NC(=O)[C@H](C)OC(=O)[C@@H](C(C)C)NC(=O)[C@@H](C(C)C)OC(=O)[C@H](C(C)C)NC(=O)[C@H](C)OC(=O)[C@@H](C(C)C)NC(=O)[C@@H](C(C)C)OC1=O` [Valinomycin], under “24 h, 10 µM; inhibitor”, the “OC43 Inhibition rate” value is 24.4%. On to `C[C@H]1CCCC(=O)CCC/C=C/c2cc(O)cc(O)c2C(=O)O1` [Zearalenone], for which the “OC43 Inhibition rate” value (24 h, 10 µM; inhibitor) came out at 56.4%. As for `C/C=C(/C)C(=O)O[C@H]1[C@@H]2[C@H](C)C(=O)O[C@@H]2C[C@@H](C)[C@@H]2C=CC(=O)[C@]21C` [Brevilin A], the “OC43 Inhibition rate” value (24 h, 10 µM; inhibitor) is given as -7.8%.

Take `C[C@@]12C[C@@H](c3ccoc3)OC(=O)[C@@H]1CC[C@]1(C)[C@H]2[C@@H]2C=C[C@@]1(O)C(=O)O2` [Columbin]: where the note is “24 h, 10 µM; inhibitor”, the “OC43 Inhibition rate” value came to 0.3%. As for `COC1=C[C@@H]2[C@@H]3Cc4ccc(OC)c(O)c4[C@]2(CCN3C)CC1=O` [Sinomenine], under “24 h, 10 µM, inhibitor”, the “OC43 Inhibition rate” value was -0.6%.

On to `CCN1C[C@]2(C)CC[C@H](OC)[C@@]34C1[C@]1(OCO[C@@]15C[C@H](OC)[C@H]1C[C@]3(O)[C@@H]5[C@H]1OC)[C@@H](OC(C)=O)[C@H]24` [Deltaline], for which the “OC43 Inhibition rate” value (24 h, 10 µM; inhibitor) is recorded as -0.3%. `O=c1ccc2ccc3occc3c2o1` [Angelicin]: the “OC43 Inhibition rate” value (24 h, 10 µM; inhibitor) turned out to be 7.8%. As for `C/C=C1\C[C@@H](C)[C@](O)(CO)C(=O)OCC2=CC[N+]3([O-])CC[C@@H](OC1=O)[C@@H]23` (stereo partly shown) [Usaramine N-oxide], the “OC43 Inhibition rate” value (24 h, 10 µM; inhibitor) stood at 1.1%. As to `CCN1C[C@]2(COC)CC[C@H](OC)[C@]34C1[C@H](C[C@H]23)[C@@]1(O)C[C@H](OC)[C@H]2C[C@@H]4[C@@H]1[C@H]2O` [Talatisamine], where the note is “24 h, 10 µM; inhibitor”, the “OC43 Inhibition rate” value is recorded as -0.2%. `COc1ccc(C=O)cc1OC` [Veratraldehyde]: the “OC43 Inhibition rate” value (24 h, 10 µM; inhibitor) is listed as -1.2%. Regarding `CO[C@H]1CC[C@@H](O[C@H]2C[C@H]([C@]3(C)CC[C@]4(C[C@H](O)[C@@H](C)[C@@H]([C@@H](C)/C=C(\C)C(=O)[C@H](C)C[C@H](C)C(=O)O)O4)O3)O[C@]3(O[C@@H]([C@H]4O[C@@](O)(CO)[C@H](C)C[C@@H]4C)C[C@@H]3C)[C@@H]2C)O[C@@H]1C` [Dianemycin], the “OC43 Inhibition rate” value (24 h, 10 µM, inhibitor) is reported as -6.2%. In the case of `CC(C)=CCC/C(C)=C/CC/C(C)=C/CC[C@]1(C)CCc2cc(O)c(C)c(C)c2O1` [γ-Tocotrienol], the “OC43 Inhibition rate” value (24 h, 10 µM; inhibitor) is -0.3. On the same count and under the same terms, then `C[C@]12CC[C@@H](O)C[C@@H]1CC[C@@H]1[C@@H]2CC[C@]2(C)C(=O)CC[C@@H]12` [Androsterone], with 0.6%; and `C[C@]12CC[C@H](O)C[C@H]1CC[C@@H]1[C@@H]2[C@H](O)C[C@]2(C)[C@@H](c3ccc(=O)oc3)CC[C@]12O` [Gamabufotalin], with 12.1%. With `CC1=C[C@@H]2C(=O)[C@]3(C=C(C)[C@H](O)[C@@]3(O)[C@@H]1O)[C@H](C)C[C@@H]1[C@H]2C1(C)C` [20-Deoxyingenol], the “OC43 Inhibition rate” value (24 h, 10 µM; inhibitor) turned out to be 3.1%.

`CC(=O)OC(C)(C)/C=C/C(=O)[C@](C)(O)[C@H]1[C@H](O)C[C@@]2(C)[C@@H]3CC=C4[C@H](C[C@H](O)C(=O)C4(C)C)[C@]3(C)C(=O)C[C@]12C` [Cucurbitacin B]: under “24 h, 10 µM; inhibitor”, the “OC43 Inhibition rate” value is listed as -1.7%. With `C[C@H]1CCC[C@@H](O)CCCCCc2cc(O)cc(O)c2C(=O)O1` [Beta-Zearalanol], the “OC43 Inhibition rate” value (24 h, 10 µM; inhibitor) is listed as 0%. Consider `N[C@@H](CNC(=O)C(=O)O)C(=O)O` [Dencichine], for which, under “24 h, 10 µM; inhibitor”, the “OC43 Inhibition rate” value is recorded as -0.9%.

As to `CCC(=O)c1cc2c(cc1O)OCO2` [Kakuol], the “OC43 Inhibition rate” value (24 h, 10 µM; inhibitor) is -0.5%. Same read-out and setting: the result for `CC(C)=CCCC1=CC(=O)c2c(O)ccc(O)c2C1=O` [Deoxyshikonin] reads -3.1%. Still for that read-out and setting: the result for `CCN1C[C@]2(COC)[C@H](O)C[C@H](OC)[C@@]34[C@@H]5C[C@]6(O)[C@@H](OC)C[C@@](OC(C)=O)([C@H]5[C@H]6OC(=O)c5ccccc5)[C@@H]([C@H](OC)[C@H]23)[C@@H]14` [Indaconitine] reads -0.3%; that for `C=C1[C@H](OC(=O)c2ccccc2)C[C@H]2[C@@H](/C=C(\C)C(=O)[C@@]3(OC(C)=O)C[C@H](C)[C@H](OC(=O)c4ccccc4)[C@@H]3[C@H]1OC(C)=O)C2(C)C` [Euphorbia Factor L2], 4.9%. On to `Cc1cc(=O)[nH]c(=O)[nH]1` [6-Methyluracil], for which the “OC43 Inhibition rate” value (24 h, 10 µM; inhibitor) is -0.7. For the compound `COC1=C[C@@H]2[C@@H]3Cc4ccc(OC)c(O)c4[C@]2(CCN3C)CC1=O` [Sinomenine hydrochloride], the “OC43 Inhibition rate” value (24 h, 10 µM, inhibitor) is given as 0.1%. As for `Cc1ccc(C=O)cc1` [p-Tolualdehyde], the “OC43 Inhibition rate” value (24 h, 10 µM; inhibitor) is given as -0.1.

Take `C[C@]12CCC(=O)C=C1CC[C@@H]1[C@@H]2C(=O)C[C@]2(C)C(=O)CC[C@@H]12` [Adrenosterone]: under “24 h, 10 µM; inhibitor”, the “OC43 Inhibition rate” value is on record as -0.1%. On the same count and under the same terms, then `O=Cc1ccc[nH]1` [Pyrrole-2-carboxaldehyde], with 0.2.
